Assay results reported in paper PMC10896785.
No constants are given. Whether binding was seen depends on the method and setting. In cells and extracts the contact can be indirect. Some binding calls cover weakened binding; strength is not graded here.

Protein sequences, listed by entry. Tags and fused reporters are not part of them.
UniProt P19091: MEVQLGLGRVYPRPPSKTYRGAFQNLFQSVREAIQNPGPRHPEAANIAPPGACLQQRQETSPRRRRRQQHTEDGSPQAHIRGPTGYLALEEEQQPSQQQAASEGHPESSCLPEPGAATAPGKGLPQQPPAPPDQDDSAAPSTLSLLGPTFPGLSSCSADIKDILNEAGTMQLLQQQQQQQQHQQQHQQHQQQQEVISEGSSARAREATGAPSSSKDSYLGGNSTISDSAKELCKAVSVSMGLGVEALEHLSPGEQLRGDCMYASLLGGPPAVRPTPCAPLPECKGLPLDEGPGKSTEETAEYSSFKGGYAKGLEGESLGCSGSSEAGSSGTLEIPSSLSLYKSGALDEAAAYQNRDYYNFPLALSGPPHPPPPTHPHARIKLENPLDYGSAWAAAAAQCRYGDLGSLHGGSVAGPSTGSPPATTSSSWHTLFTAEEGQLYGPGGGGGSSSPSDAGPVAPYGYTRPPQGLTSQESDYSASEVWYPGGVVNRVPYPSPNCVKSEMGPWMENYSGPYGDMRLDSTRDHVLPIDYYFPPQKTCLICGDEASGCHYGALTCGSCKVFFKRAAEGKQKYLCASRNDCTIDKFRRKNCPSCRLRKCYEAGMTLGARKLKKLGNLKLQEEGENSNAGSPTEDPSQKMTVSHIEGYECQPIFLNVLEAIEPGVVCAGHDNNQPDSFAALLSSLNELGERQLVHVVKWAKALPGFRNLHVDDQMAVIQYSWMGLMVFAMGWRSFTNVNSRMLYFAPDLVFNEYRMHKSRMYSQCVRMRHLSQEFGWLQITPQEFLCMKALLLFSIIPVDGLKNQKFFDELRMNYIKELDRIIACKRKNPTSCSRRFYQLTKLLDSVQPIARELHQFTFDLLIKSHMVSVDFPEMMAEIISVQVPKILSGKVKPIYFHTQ
UniProt P06537: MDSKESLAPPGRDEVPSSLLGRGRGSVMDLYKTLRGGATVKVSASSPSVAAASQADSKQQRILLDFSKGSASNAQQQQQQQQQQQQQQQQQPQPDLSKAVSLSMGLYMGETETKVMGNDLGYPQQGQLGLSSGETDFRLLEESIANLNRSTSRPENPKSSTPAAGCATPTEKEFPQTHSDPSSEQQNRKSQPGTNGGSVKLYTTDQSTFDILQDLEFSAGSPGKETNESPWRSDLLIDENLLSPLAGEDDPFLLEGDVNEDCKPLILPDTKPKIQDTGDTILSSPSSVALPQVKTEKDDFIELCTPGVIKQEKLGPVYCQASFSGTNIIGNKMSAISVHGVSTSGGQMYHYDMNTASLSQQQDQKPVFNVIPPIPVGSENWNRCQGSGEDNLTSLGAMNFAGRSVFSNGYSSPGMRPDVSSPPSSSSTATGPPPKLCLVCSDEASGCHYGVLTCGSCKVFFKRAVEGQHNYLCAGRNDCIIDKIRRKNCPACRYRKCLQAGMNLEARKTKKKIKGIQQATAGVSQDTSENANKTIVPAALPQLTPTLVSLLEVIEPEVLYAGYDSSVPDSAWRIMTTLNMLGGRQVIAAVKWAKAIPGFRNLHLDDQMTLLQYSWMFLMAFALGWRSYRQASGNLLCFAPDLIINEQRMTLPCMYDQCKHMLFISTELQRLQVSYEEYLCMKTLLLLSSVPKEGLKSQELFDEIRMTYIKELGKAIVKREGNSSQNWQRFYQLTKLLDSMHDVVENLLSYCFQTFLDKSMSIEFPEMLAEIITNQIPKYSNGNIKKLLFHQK

B1: PP5, endogenous mouse brain (enzyme, UniProt Q60676 1-499)
chain: MAMAEGERTECAETPRDEPPADGTLKRAEELKTQANDYFKAKDYENAIKFYSQAIELNPGNAIYYGNRSLAYLRTECYGYALGDATRAIELDKKYIKGYYRRAASNMALGKFRAALRDYETVVKVKPNDKDAKMKYQECSKIVKQKAFERAIAGDEHRRSVVDSLDIESMTIEDEYSGPKLEDGKVTITFMKDLMQWYKDQKKLHRKCAYQILVQVKEVLCKLSTLVETTLKETEKITVCGDTHGQFYDLLNIFELNGLPSETNPYIFNGDFVDRGSFSVEVILTLFGFKLLYPDHFHLLRGNHETDNMNQIYGFEGEVKAKYTAQMYELFSEVFEWLPLAQCINGKVLIMHGGLFSEDGVTLDDIRKIERNRQPPDSGPMCDLLWSDPQPQNGRSVSKRGVSCQFGPDVTKAFLEENQLDYIIRSHEVKAEGYEVAHGGRCVTVFSAPNYCDQMGNKASYIHLQGSDLRPQFHQFTAVPHPNVKPMAYANTLLQLGMM
B2: FKBP51 K352A, R356A (Fkbp5^TPRmut knock-in mouse) (protein, UniProt Q64378 1-456)
chain: MTTDEGTSNNGENPAATMTEQGEDITTKKDRGVLKIVKRVGTSDEAPMFGDKVYVHYKGMLSDGKKFDSSHDRKKPFAFSLGQGQVIKAWDIGVSTMKKGEICHLLCKPEYAYGSAGHLQKIPSNATLFFEIELLDFKGEDLFEDSGVIRRIKRKGEGYSNPNEGATVKVHLEGCCGGRTFDCRDVVFVVGEGEDHDIPIGIDKALVKMQREEQCILYLGPRYGFGEAGKPKFGIDPNAELMYEVTLKSFEKAKESWEMDTKEKLTQAAIVKEKGTVYFKGGKYTQAVIQYRKIVSWLEMEYGLSEKESKASESFLLAAFLNLAMCYLKLREYNKAVECCDKALGLDSANEAGLYARGEAQLLMNDFESAKGDFEKVLAVNPQNRAARLQISMCQRKAKEHNERDRRVYANMFKKFAERDAKEEASKAGSKKAVEGAAGKQHESQAMEEGKAKGHV

Columns and labels:
[1] = molecular target: androgen receptor (AR), endogenous mouse brain (mouse (endogenous in brain)) (UniProt P19091); test: co-IP; whole brain lysate (2 mg; PBS, 0.5% NP-40) of 12-month-old WT or Fkbp5^TPRmut homozygous males incubated overnight at 4 °C with GR affinity resin, anti-AR agarose resin or empty agarose beads; Western blot for GR, AR, Hsp90, FKBP51, FKBP52, PP5
[2] = molecular target: glucocorticoid receptor (GR), endogenous mouse brain (mouse (endogenous in brain)) (UniProt P06537); test: as above

| Binder | binding [1] | binding [2] |
| --- | --- | --- |
| B1 | binds | binds |
| B2 | no binding | no binding |
